No dose or concentration is given here for some results.
Assays:
[1] = test system: SW480 cells; assay: ATAC-seq chromatin accessibility; assay type: cell-based; settings: SW480, vs. DMSO, 6 h
[2] = test system: RKO cells; assay: ATAC-seq chromatin accessibility; assay type: cell-based; settings: vs. DMSO, 6 h

**Q.** For `CNC(=O)c1cc(Oc2ccc(NC(=O)Nc3ccc(Cl)c(C(F)(F)F)c3)c(F)c2)ccn1` [regorafenib], which “hyper-accessible regions (ATAC-seq)” value [1] is on record?
**A.** 1408

**Q.** What about the “hypo-accessible regions (ATAC-seq)” value [1] of the same molecule?
**A.** 1552

**Q.** What about the “hyper-accessible regions (ATAC-seq)” value [2] of the same molecule?
**A.** 277

**Q.** And the “hypo-accessible regions (ATAC-seq)” value [2]?
**A.** 419

Reference: PMC11238352, “Combination of dual JAK/HDAC inhibitor with regorafenib synergistically reduces tumor growth, metastasis, and regorafenib-induced toxicity in colorectal cancer” (Journal of Experimental & Clinical Cancer Research : CR, 2024)
